From PubChem BioAssay AID2685 (National Center for Advancing Translational Sciences (NCATS), 2010)
This is one part of the list. These are further read-outs of the screen, such as a control signal, another cell line or another target. No call is given for them. Compounds called inactive in the main read-out are mostly missing here. The note in brackets gives the kind of curve behind each potency; many fits are weak.

Assay: qHTS Assay for Lipid Storage Modulators in Drosophila S3 Cells;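 as to cell number change: cells counted by Cell Tracker Red CMTPX staining in the red channel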
Conditions: BODIPY lipid droplet fluorescence, 18-24 h; for cell number change: measured here: cell count max response, cells fed with added oleic acid
How it was run: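 Drosophila S3 cells got compounds at several concentrations plus oleic acid (400 uM solution). Laser-scanning cytometry with 488 nm excitation read lipid droplets at 500-530 nm and cells at 575-640 nm. Percent activity was relative to 20 uM Triacsin C.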

[1] = measured here: cell number channel AC50, cells fed with added oleic acid
[2] = measured here: lipid fluorescence (Fed channel) AC50, cells fed with added oleic acid

| Structure (SMILES) | cell number change [%] | AC50 [1] | AC50 [2] |
| --- | --- | --- | --- |
| CN(Cc1ccccc1)C(=O)c1cc2ccccc2o1 | 73.2 | 1.84 µM [rising, full curve] | 9.2 µM [rising, partial curve] |
| CC1CN(C(=O)c2cccc(COc3ccccc3Cl)c2)CC(C)O1 (stereo unspecified) | 1.87 |  | 0.082 µM [falling, single point] |
| NC(=O)/C=C/C(=O)Nc1ccc(Cl)cc1 | -49.5 | 10.3 µM [falling, partial curve] | 14.6 µM [falling, partial curve] |
| CCCc1cc(=O)oc2cc(OCC(=O)Nc3ccc4c(c3)OCCO4)ccc12 | -12.5 |  | 0.731 µM [rising, single point] |
| CC(C)C(NS(=O)(=O)c1ccc2c(c1)OCCCO2)C(=O)O (stereo unspecified) | -13.2 |  |  |
| CCOC(=O)C(CC)n1cnc2c(nnn2-c2ccc(OC)cc2)c1=O (stereo unspecified) | 17.9 |  | 0.517 µM [rising, full curve] |
| N#CCCN(C(=O)Nc1ccccc1)c1ccccc1 | 9.39 |  | 0.00411 µM [falling, full curve, poor fit] |
| Cc1ccc(C2CC(=O)Oc3cc(O)ccc32)cc1 (stereo unspecified) |  |  | 29.1 µM [rising, single point] |
| C[C@@H]1Cc2c(O)c(O)cc(O)c2C(=O)O1 | 15.3 |  | 6.51 µM [rising, single point] |
| COc1ccc(OCCOC(=O)CN2C(=O)NC3(CCCC3)C2=O)cc1 |  | 2.06 µM [rising, partial curve] |  |
| COC(C)(C)[C@H](O)COc1c2ccoc2cc2oc(=O)ccc12 | 7.17 |  | 3.66 µM [rising, full curve, poor fit] |
| C=C(c1ccccc1C)[n+]1ccccc1 | 4.01 |  |  |
| Cc1ccsc1/C=N/NC(=O)c1ccc2ccccc2c1 | 33.7 | 29.1 µM [rising, single point] |  |
| COc1cc2c(cc1OC)-c1cc(NC3CCCCCC3)nc(=O)n1CC2 |  | 4.61 µM [falling, single point] |  |
| Cc1ccc(S(=O)(=O)Cc2c(C)noc2C)cc1 | 2.36 |  | 2.06 µM [falling, partial curve] |
| CCS(=O)(=O)n1nc(-c2ccc(OC)cc2)nc1SC | 11.2 |  | 2.31 µM [rising, single point] |
| O=C(/C(=C/c1ccncc1)n1ccnc1)c1ccc(Cl)cc1Cl | -24.6 |  | 2.91 µM [rising, partial curve, poor fit] |
| COc1ccccc1N(C)S(=O)(=O)c1ccc(C(=O)OCC(=O)N(C)c2ccccc2)cc1 |  | 6.51 µM [rising, single point] |  |
| O=C(CSc1ccncc1)Nc1ccc2ccccc2c1 | 40 | 18.4 µM [rising, partial curve] | 1.64 µM [rising, partial curve] |
| COc1cccc(CN(C(=O)c2ccccc2Cl)C2CCS(=O)(=O)C2)c1 (stereo unspecified) | 1.53 |  |  |

Laid out differently: entries from further up
Structure (SMILES),cell number change [%],AC50 [1],AC50 [2]
C[C@@H]1Cc2c(O)c(O)cc(O)c2C(=O)O1,15.3,,"6.51 µM [rising, single point]"
COc1ccc(OCCOC(=O)CN2C(=O)NC3(CCCC3)C2=O)cc1,,"2.06 µM [rising, partial curve]",
COC(C)(C)[C@H](O)COc1c2ccoc2cc2oc(=O)ccc12,7.17,,"3.66 µM [rising, full curve, poor fit]"
C=C(c1ccccc1C)[n+]1ccccc1,4.01,,
Cc1ccsc1/C=N/NC(=O)c1ccc2ccccc2c1,33.7,"29.1 µM [rising, single point]",
COc1cc2c(cc1OC)-c1cc(NC3CCCCCC3)nc(=O)n1CC2,,"4.61 µM [falling, single point]",
Cc1ccc(S(=O)(=O)Cc2c(C)noc2C)cc1,2.36,,"2.06 µM [falling, partial curve]"
CCS(=O)(=O)n1nc(-c2ccc(OC)cc2)nc1SC,11.2,,"2.31 µM [rising, single point]"
O=C(/C(=C/c1ccncc1)n1ccnc1)c1ccc(Cl)cc1Cl,-24.6,,"2.91 µM [rising, partial curve, poor fit]"
COc1ccccc1N(C)S(=O)(=O)c1ccc(C(=O)OCC(=O)N(C)c2ccccc2)cc1,,"6.51 µM [rising, single point]",

(cont.)

| Structure (SMILES) | cell number change [%] | AC50 [1] | AC50 [2] |
| --- | --- | --- | --- |
| O=C(NN=C1CCCCC1)NC1CCCCC1 |  |  | 0.411 µM [rising, full curve, poor fit] |
| COc1cccc(/C=N/NC(=O)C(=O)N2CCCCCC2)c1O | -38.7 | 23.1 µM [falling, single point] | 29.1 µM [falling, single point] |
| COc1ccc(C(=O)Nc2cccc3c2C(=O)NC3=O)cc1S(=O)(=O)N1CCOCC1 | -13.2 |  | 32.6 µM [falling, single point] |
| COc1ccc(Cl)cc1NC(=O)CSc1nnc(-c2ccncc2)n1CC1CCCO1 (stereo unspecified) | 0.97 |  | 0.259 µM [rising, full curve] |
| CCOc1cc(/C=N/N2C(=O)NC3(CCCCC3)C2=O)cc(Br)c1O | -25.7 |  | 2.31 µM [falling, full curve] |
| O=C(NC(=S)Nc1ccc2[nH]c(=O)[nH]c2c1)c1cc(Br)ccc1Cl | 31.7 | 23.1 µM [rising, single point] | 0.291 µM [rising, full curve, poor fit] |
| O=S(=O)(Nc1ccc(-c2csc(-c3ccccc3)n2)cc1)c1ccccc1 | -63.9 | 3.26 µM [falling, single point] |  |
| CC(=O)Nc1ccc(NC(=O)CSc2nnc(CC(C)O)n2-c2ccccc2)cc1 (stereo unspecified) |  |  | 0.58 µM [falling, single point] |
| CCCC(=O)NC(c1ccccc1)c1ccc2cccnc2c1O (stereo unspecified) | -47.2 | 14.6 µM [falling, single point] | 0.651 µM [falling, partial curve, poor fit] |
| Cc1cccc(N(C(=O)CCC(=O)Nc2cc(C)on2)C(C(=O)NC2CCCC2)c2ccccc2)c1 (stereo unspecified) | 7.83 |  |  |
| COCCNC(=O)Nc1ccc(F)cc1 | -48.9 | 0.891 µM [falling, full curve] | 2.51 µM [falling, full curve] |
| CCn1cnc2sc(C(=O)N3CCN(c4ccc(OC)cc4)CC3)c(C)c2c1=O | 17.2 |  | 29.1 µM [rising, single point] |
| CC(=O)Nc1nonc1NC(=O)COc1ccccc1 | -32.9 | 0.731 µM [falling, full curve, poor fit] | 29.1 µM [falling, single point] |
| CCOc1ccc(/C=C/C(O)=C2/C(=O)NC3(C)CC2c2ccccc2O3)cc1OC (stereo unspecified) | -35.2 | 29.1 µM [falling, single point] | 29.1 µM [falling, single point] |
| COC(=O)CN1C(=O)Nc2ccc(Br)cc2C1c1ccccc1Cl (stereo unspecified) | -31.1 | 20.6 µM [falling, single point] | 0.164 µM [rising, full curve, poor fit] |
| Cc1[nH]nc2c1C(c1cnn(C)c1)C(C#N)=C(N)O2 (stereo unspecified) | -30.6 |  | 32.6 µM [falling, single point] |
| O=C(N/N=C/c1sc(N2CCOCC2)nc1-c1ccccc1)c1cccc(S(=O)(=O)N2CCOCC2)c1 | -49.4 | 14.6 µM [falling, partial curve, poor fit] | 3.66 µM [falling, full curve] |
| COC(=O)CCCNc1ncccc1[N+](=O)[O-] | -10.9 |  |  |
| COc1ccc2nc(NC(=O)CSc3nc(SC)ns3)sc2c1 | -13.8 |  | 13 µM [falling, partial curve, poor fit] |
| O=C1C=CC(=O)N1c1ccc(O)cc1 | -72 | 16.4 µM [falling, partial curve] | 16.4 µM [falling, partial curve] |

| Structure (SMILES) | cell number change [%] | AC50 [1] | AC50 [2] |
| --- | --- | --- | --- |
| COc1ccc(NC(=O)CC2C(=O)N(C)C(=S)N2Cc2ccncc2)cc1 (stereo unspecified) | -36.9 | 29.1 µM [falling, single point] |  |
| O=C(Nc1cc(S(=O)(=O)N2CCCCC2)ccc1N1CCOCC1)c1ccc(F)cc1 |  | 6.51 µM [falling, single point] |  |
| c1ccc(Nc2nc(NCc3ccco3)c3ccccc3n2)cc1 | -63.7 | 16.4 µM [falling, single point] | 20.6 µM [falling, single point] |
| COc1cc2oc3ccccc3c2cc1N(CC(=O)N1CCCCC1)S(=O)(=O)c1ccc(C)cc1 | -3.83 |  | 0.58 µM [falling, single point] |
| COCCN(C(=O)CSCC(=O)Nc1cccc(C)c1)c1c(N)n(Cc2ccccc2)c(=O)[nH]c1=O |  |  | 6.51 µM [rising, single point] |
| Cc1cc(C)n(C(=O)c2ccc([N+](=O)[O-])c(Cl)c2)n1 | -23.8 |  | 29.1 µM [falling, single point] |
| CCCN1C2CCCC1CC(NC(=O)NC13CC4CC(CC(C4)C1)C3)C2 (stereo unspecified) | -19.3 |  |  |
| CCOc1cc(-c2nc3ccccn3c2NCC2CCCO2)ccc1O (stereo unspecified) | -77.8 | 16.4 µM [falling, partial curve] |  |
| Cc1ccccc1NC(=O)N1CCCN(c2ccc(C#N)cn2)CC1 | 22.7 |  | 1.3 µM [rising, partial curve] |
| C=CCn1c(SCC(=O)c2c(N)n(C3CC3)c(=O)[nH]c2=O)nnc1-c1ccc(OC)cc1 | -12.5 |  |  |
| Cc1ccc(CNC(=O)c2ccc(COc3ccccc3)cc2)cc1 | -7.81 |  | 0.13 µM [rising, full curve, poor fit] |
| CC(=O)c1ccc(NC(=O)Nc2ccc(Cl)cc2)cc1 | -73.6 | 18.4 µM [falling, single point] | 29.1 µM [falling, partial curve] |
| CC(NC(=O)CCOc1ccccc1)c1ccccc1 (stereo unspecified) | -25.7 |  | 29.1 µM [falling, single point] |
| COc1cc(C(=O)Oc2cccc(C(=S)N3CCOCC3)c2)cc(OC)c1OC | -21.8 |  | 32.6 µM [falling, single point] |
| COc1ccccc1-c1nnc(SCC(=O)c2c(N)n(C3CC3)c(=O)[nH]c2=O)o1 | 4.66 |  | 7.31 µM [rising, full curve, poor fit] |
| Cc1cc(/C=C2/C(=N)N3C(=NC2=O)SN=C3S(C)(=O)=O)c(C)n1-c1ccc(F)cc1 | 2.56 | 6.51 µM [falling, single point] | 6.51 µM [falling, single point] |
| CC(C)(C)c1ccc(OCCCNCc2ccccc2)cc1 | -71.2 | 25.9 µM [falling, partial curve, poor fit] | 23.1 µM [falling, partial curve, poor fit] |
| CCn1c(SCC(=O)Nc2cc(C)on2)nc2c(c1=O)SC(C)C2 (stereo unspecified) |  |  | 29.1 µM [rising, single point] |

3 structures already listed, sorted by number of heavy atoms, high to low:

| Structure (SMILES) | cell number change [%] | AC50 [1] | AC50 [2] |
| --- | --- | --- | --- |
| COC(C)(C)[C@H](O)COc1c2ccoc2cc2oc(=O)ccc12 | 7.17 |  | 3.66 µM [rising, full curve, poor fit] |
| C=C(c1ccccc1C)[n+]1ccccc1 | 4.01 |  |  |
| O=C1C=CC(=O)N1c1ccc(O)cc1 | -72 | 16.4 µM [falling, partial curve] | 16.4 µM [falling, partial curve] |
